# Inconclusive results, whose numbers are uncertain, are shown with a selection of clear calls. Potencies beside an inconclusive call are fits to weak or partial responses and may not hold up. The source made the active and inactive calls. Calls follow the shape of the dose curve; as a rule, active = well fitted inhibition curve with a large enough effect; inconclusive = small, poorly fitted or top-dose-only effect; inactive = no such curve, though single readings can be large or run the other way.
# Test system: Zika virus NS2B-NS3 protease (linked)
# Assay: Optimization screen NINDS Rhodamine qHTS for Zika virus inhibitors: Linked NS2B-NS3 protease assay
# Conditions: fluorogenic rhodamine substrate; series mostly up to 228 µM; activity change, negative = inhibition: at the top concentration
# From the text: Avindra Nath, Ph.D., National Institute of Neurological Disorders and Stroke (NINDS), Bethesda, MD
# Radhakrishnan Padmanabhan, Ph.D., Georgetown University (GU), Washington D.C.
# Zika Virus causes congenital defects, including microcephaly and is associated with Guillain-Barre syndrome, eningoencephalitis and myelitis in infected adult. […] Using a target-based approach, we hope to establish a screening paradigm to uncover novel, cell-active NS2B-NS3 protease (Zika Virus) specific inhibitors from NCATS' collection of small molecules using qHTS.
# Four assay panel was created to identify potential Zika Virus inhibitors. Namely, (1) GU unlinked NS2B-NS3 AMC tagged protease qHTS, (2) GU unlinked NS2B-NS3 Rhodamine tagged protease qHTS, (3) NINDS linked NS2B-NS3 AMC tagged protease qHTS, (4) NINDS linked NS2B-NS3 Rhodamine tagged protease qHTS. Active compounds were re-acquired and re-screened to confirm inhibition. Inhibitors were further screened against various confirmatory and counterscreens in dose response format.
# Early Translation Branch (ETB)
# National Center for Advancing Translational Sciences (NCATS), Rockville, MD
# National Institute of Health (NIH), Bethesda, Maryland
# For the linked assay, Nath lab (NINDS) provided the purified linked NS2B-NS3 protease which is consists of hydrophilic domain of NS2B linked to the NS3 protease domain by a flexible (-GGGGSGGGG-) linker. Control compound aprotinin is obtained from Thermo Scientific (#78432; Waltham, Massachusetts). Rhodamine110 substrate ([N-Cbz]-Nle-Lys-Arg-Arg-Rhod110-Arg-Arg-Lys-Nle-[N-Cbz]) was purchased from either Genscript or Bachem.
# 1536-well Protease (Rhodamine110 Substrate) Assay:
# Briefly, 3 microL of enzyme (25 nM final concentration), in assay buffer (10 mM Tris-HCl pH 8.0 with 0.01% Tween 20) were dispensed into a 1,536-well solid-bottom black plate (Greiner Bio One, Monroe, NC). Twenty-three nL of compounds (final concentration range 7.28 nM to 114 microM) or control Aprotinin (final concentration range 3.47 nM to 114 microM) were transferred via Wako Pin-tool (Wako Automation, Richmond, VA). Samples were incubated (room temperature, protected from light) for 15 minutes followed by a 1 microL Rhodamine110 substrate addition (1.5 microM final concentration). Plates were then immediately read on a ViewLux High-throughput CCD imager (PerkinElmer, Waltham, MA) equipped with FITC fluorescence optics (480(20) nm excitation, 540(25) nm emission), then incubated (room temperature, protected from light) for 15 minutes (~15% conversion). The change in fluorescence intensity over the 15-minute reaction period was normalized against no-inhibitor and no-enzyme controls and the resulting percent inhibition data were fitted to a 4-parameter Hill equation. Aprotinin was used as intraplate control.
Compound,Potency,"activity change, negative = inhibition"
C[C@H]1[C@H]2Cc3ccc(O)cc3[C@]1(C)CCN2CCc1ccccc1,"inconclusive: 5.04 µM [inhibitor, full curve, poor fit]",
C[C@@H]1O[C@@H](O[C@H]2C[C@@H](O)[C@]3(CO)[C@H]4[C@H](O)C[C@]5(C)[C@@H](C6=CC(=O)OC6)CC[C@]5(O)[C@@H]4CC[C@]3(O)C2)[C@H](O)[C@H](O)[C@H]1O,inactive,
C[C@H]1O[C@@H](O[C@H]2[C@@H](O)C[C@H](O[C@H]3[C@@H](O)C[C@H](O[C@H]4CC[C@@]5(C)[C@H](CC[C@@H]6[C@@H]5CC[C@]5(C)[C@@H](C7=CC(=O)OC7)CC[C@]65O)C4)O[C@@H]3C)O[C@@H]2C)C[C@H](O)[C@@H]1O,,inactive: 29.8%
C[C@H]1O[C@@H](O[C@H]2[C@@H](O)C[C@@H](O[C@H]3[C@@H](O)C[C@H](O[C@H]4CC[C@@]5(C)[C@H](CC[C@@H]6[C@@H]5CC[C@]5(C)[C@@H](C7=CC(=O)OC7)CC[C@]65O)C4)O[C@@H]3C)O[C@@H]2C)C[C@H](O)[C@@H]1O,,inactive: 18%

# From PubChem BioAssay AID1347155 (National Center for Advancing Translational Sciences (NCATS), 2019)
